Earlier results as cited in US7528239B1, “Receptor that binds trail” (Immunex Corporation, priority 1997, dated 2009).
At least one structure is not confirmed: it was looked up by name or label, or the drawing left a doubt.

Tested on: microvascular endothelial cells
Details: in vitro study, Laurence et al. Blood 87:3245, 1996; cited from earlier work

For `O=C(O)C1=CC(=C(c2ccc(O)c(C(=O)O)c2)c2ccc(O)c(C(=O)O)c2)C=CC1=O` [aurintricarboxylic acid], the “reduction of TTP plasma-mediated apoptosis” value is listed as “some reduction”.
